Laboratory results: US7741464B2, “Compositions and methods of using CRMP-1 and its fragments for treating cancer” (Advpharma Inc., priority 2007, dated 2010)
Some results were stated once for a whole list of compounds, not compound by compound.

Test system: H520 stable transfectants
Assay: Chemosensitivity (MTT cytotoxicity) of stable transfectants
Format: cell-based, human
Details: H520 stable transfectants vs control transfectant
From the text: Three human cancer cell lines, including lung cancer cell line H520 and two human prostate cancer cell lines (PC-3 and DU145) were applied for selection of stable transfectants. Four expression plasmids, including pNCRMP1, pNCN1, pNCN3, and pNCN4, and the pCI-neo vector (as control plasmid) were used for transfection, respectively. The general cultivation condition and transfection procedures were the same as described in Example 3. The transfected cells were further cultivated under the same conditions as their parental cell lines and selected with 0.6-1 mg antibiotic G418 per ml (Kao et al., Oncogene 16: 546-554 (1998); Xiaolin et al, Cancer Research 65: 9762-9770 (2005)).
Three agents, including caffeic acid phenethyl ester (CAPE; Sigma, US), Adriamycin™ (doxorubicin) (Pharmacia & Upjohn S.P.A. Milan, Italy), and paclitaxel (Taxol; Bristol-Myers Squibb Co., Wallingford, Conn.), were dissolved in DMSO (dimethyl sulfoxide; Sigma) for preparation of stock solution, respectively. A serial dilution was prepared with DPBS buffer for chemosensitivity tests. The human lung squamous carcinoma stable transfectants H520 were treated with both CAPE and Adriamycin™ (doxorubicin) for four different concentrations, e.g. 0.05, 0.01, 0.002, and 0.0004 mM, while the administering of paclitaxel was performed at different concentrations, e.g. 1000, 200, 40, and 8 nM. Both types of prostate stable transfectants were only treated with paclitaxel for eight concentrations ranging from 0.1 mM to 1.28 nM with 1/5 dilution each step.
MTT (3-(4,5-dimethylthiazol-2-yl)-2,5-diphenyltetrazolium bromide; Sigma, Inc.) assay (Monks et al., J. Natl. Cancer Inst. 83:757-766 (1991); Paull et al, J. Natl. Cancer Inst. 81:1088-1092 (1989)) was applied for studying the cytotoxic effect of indicated agent. The absorbance was measured both at 545 nm and at 690 nm (served as reference) using the 96-well spectrophotometer reader (Emax, Molecular Device Inc., California, US) (Chen et al., Yi Xue Za Zhi (Taipei) 46:7-16 (1990)). The relative growth inhibition was calculated as follows: Relative growth inhibition=100%×(1−(OD545nm (Treated cells)−OD690nm(Treated cells))÷(OD545nm(untreated cells)−OD690nm(untreated cells)))
The 50% inhibition concentration (IC50) was determined after graphical plotting of spectrophotometric measurements and interpolation by EXCEL software.

Row | Substance | increase of chemosensitivity to Adriamycin (doxorubicin) | increase of sensitivity to paclitaxel
1 | CN3: active fragment of hCRMP-1, 208-480 of SEQ ID NO: 1 (SEQ ID NOS: 17 and 39) | ≥ 2 fold | at least 4 fold
2 | CN4: active fragment of hCRMP-1, 315-480 of SEQ ID NO: 1 (SEQ ID NOS: 19 and 40) | ≥ 2 fold | at least 4 fold
3 | full-length hCRMP-1: human collapsin response mediator protein-1, full-length protein with 572 amino acids (SEQ ID NO: 1) | ≥ 2 fold | 
